The supplement of paper PMC12578635
Some of the results follow. Rule as the data show it: active = 150% or more and inactive = the rest. Single values are uncertain, as repeats are few or missing.

tested on: Staphylococcus aureus JE2-lux inside RAW 264.7 macrophages; assay: intracellular bacterial bioluminescence relative to DMSO vehicle; higher = higher intracellular bacterial metabolic activity; conditions: 10 µM; treatment time 4 h; gentamicin 50 µg/ml

| Structure (SMILES) | intracellular bacterial bioluminescence |
| --- | --- |
| COc1ccc(NS(=O)(=O)c2cc(-c3ccno3)oc2C)cc1Cl | inactive: 94.1% |
| CC1(C)CC(=O)c2sc(NC(=O)c3cccc(N4C(=O)CCC4=O)c3)nc2C1 | inactive: 130% |
| CCN(CC)S(=O)(=O)c1ccc(C(=O)Nc2nnc(-c3cccc(S(C)(=O)=O)c3)o2)cc1 | inactive: 105% |
| COc1ccccc1-n1c(=O)[nH]c2c(C(N)=O)nc(-c3cccc(OC)c3O)nc21 | inactive: 117% |
| CN(C(=O)c1cnc(N2CCCCC2)c2ccccc12)C1CCCCC1 | inactive: 105% |
| C=CCNC(=O)Cn1nc(-c2cc(C)oc2C)cc(N)c1=O | inactive: 120% |
| CCCCC1CCC(C(=O)Oc2cc(C)[nH]c(=O)c2[N+](=O)[O-])CC1 (stereo unspecified) | inactive: 105% |
| CCc1nnc2ccc(C(=O)NCc3ccc(Cl)cc3)cn12 | inactive: 86.7% |
| O=C(COc1ccccc1)Nc1nc2c(cc3c4c(cccc42)CC3)s1 | inactive: 112% |
| Cc1ccc(S(=O)(=O)N2CCCc3ccc(NC(=O)c4ccc5c(c4)OCO5)cc32)cc1 | inactive: 149% |
| Cc1cc(C)c2sc(NNC(=O)c3nc4ccccc4s3)nc2c1 | inactive: 104% |
| Cc1nn(C)c2ncc(C(=O)NC3CC3)c(NCc3ccccc3)c12 | inactive: 115% |
| O=C1N/C(=N\c2ccccc2)c2c1cccc2[N+](=O)[O-] | inactive: 75.7% |
| CC1CN(CCc2ccccc2)c2nc3c(c(=O)n(CC(=O)OCc4ccccc4)c(=O)n3C)n2C1 (stereo unspecified) | inactive: 99.4% |
| CCOc1ccc(-c2csc3c(=O)n(C)cnc23)cc1OCC | inactive: 80.4% |
| CC1CN(S(=O)(=O)c2ccc(C(=O)NNC(=O)c3ccc4ncsc4c3)cc2)CC(C)O1 (stereo unspecified) | inactive: 101% |
| CCOc1ccc(NC(=O)c2ccc(CNc3nc4[nH]c(C)cc(=O)n4n3)cc2)cc1 | inactive: 81.8% |
| N=C1SCC(=O)N1c1ncc(Cc2ccccc2F)s1 | inactive: 91.7% |
| Cn1c(SCC(=O)c2ccc(F)cc2)ncc(C(=O)Nc2ccccc2)c1=O | inactive: 92.3% |
| N=C1NC(=O)C(CC(=O)Nc2cccc3ccccc23)S1 (stereo unspecified) | inactive: 104% |
| COc1ccc(CN2Cc3ccncc3C2=O)c(OC)c1 | inactive: 105% |
| COc1ccc(NC(=O)COc2nc(C)nc3onc(-c4ccccc4)c23)c(OC)c1 | inactive: 12.9% |
| O=c1cc(-c2ccc(F)cc2)nc(N2CCN(Cc3ccc4c(c3)OCO4)CC2)[nH]1 | inactive: 53.4% |

| Structure (SMILES) | intracellular bacterial bioluminescence |
| --- | --- |
| Cc1ccc([N+](=O)[O-])cc1NC(=O)CC(C(=O)O)N1CCN(C)CC1 (stereo unspecified) | inactive: 134% |
| CCOC(=O)CCCSc1nc2sc3c(c2c(=O)[nH]1)CCC3 | inactive: 122% |
| CC(=O)NCCNc1nc2c(-c3cccc(C(F)(F)F)c3)nnn2c2ccccc12 | inactive: 103% |
| O=C(CSc1nnc(Cc2ccccc2)c(=O)[nH]1)Nc1cccc(C(F)(F)F)c1 | inactive: 108% |
| O=C(COc1coc(CN2CCc3ccccc3C2)cc1=O)NCc1ccc2c(c1)OCO2 | inactive: 111% |
| COc1ccc(-c2nc(OCC(=O)Nc3cccc(OC)c3)c3c4c(sc3n2)CCCC4)cc1 | inactive: 105% |
| N#CC1=C(N)Oc2c(oc(CO)cc2=O)C1c1ccncc1 (stereo unspecified) | inactive: 108% |
| CCOc1ccccc1NC(=O)c1sc2nc(-c3ccc(OC)cc3)cn2c1C | inactive: 118% |
| CCOC(=O)c1cccc(NC(=O)Cn2cc(-c3nnc(CN4CCCCC4)o3)c3ccccc32)c1 | inactive: 31% |
| COc1ccc2sc(Nc3ccc(F)cc3F)nc2c1 | inactive: 96.8% |
| Cc1cc(NC(=O)Cn2nnc(-c3ccc4c(c3)OCO4)n2)no1 | inactive: 114% |
| COc1ccc(/N=c2\scc(-c3ccc(OC)c(OC)c3)n2CCCO)cc1 | inactive: 81.6% |
| COc1ccc(C(=O)N(Cc2ccccc2)c2nc3[nH]c(C)cc(=O)n3n2)cc1 | inactive: 79.9% |
| O=C1Cc2cc(NS(=O)(=O)c3ccc4c(c3)NC(=O)CO4)ccc2N1 | inactive: 111% |
| Cn1c(=O)c2c(nc3n2CCCN3Cc2ccco2)n(C)c1=O | inactive: 109% |
| O=C1c2cccc3cccc(c23)C(=O)N1CCCc1nc2sc3c(c2c(=O)[nH]1)CCCC3 | inactive: 49.2% |
| CC(=O)N1c2ccc(S(=O)(=O)NCCc3n[nH]c(-c4ccc(F)cc4)n3)cc2CC1C (stereo unspecified) | inactive: 107% |
| O=C(CCCN1C(=O)/C(=C\c2ccco2)SC1=S)Nc1ccccc1C(=O)O | inactive: 100% |
| Cc1sc(NC(=O)c2nc3ccccc3s2)c(C(N)=O)c1C | inactive: 133% |
| CCS(=O)(=O)c1ccc(C(=O)Nc2nc3cc(C)cc(C)c3s2)cc1 | inactive: 124% |
| O=C(CSc1nc2sc3c(c2c(=O)[nH]1)CCC3)Nc1ccccc1C(F)(F)F | inactive: 82.1% |
| COc1cc2ncc(C(=O)NCCO)c(O)c2cc1OC | active: 156% |
| CCOC(=O)c1oc2ccccc2c1NC(=O)/C=C\c1ccc2c(c1)OCO2 | inactive: 109% |

Some of these compounds in order of count of non-hydrogen atoms, descending:

| Structure (SMILES) | intracellular bacterial bioluminescence |
| --- | --- |
| COc1ccc(C(=O)N(Cc2ccccc2)c2nc3[nH]c(C)cc(=O)n3n2)cc1 | inactive: 79.9% |
| O=C(CSc1nc2sc3c(c2c(=O)[nH]1)CCC3)Nc1ccccc1C(F)(F)F | inactive: 82.1% |
| Cc1ccc([N+](=O)[O-])cc1NC(=O)CC(C(=O)O)N1CCN(C)CC1 (stereo unspecified) | inactive: 134% |
| Cc1cc(NC(=O)Cn2nnc(-c3ccc4c(c3)OCO4)n2)no1 | inactive: 114% |
| Cc1sc(NC(=O)c2nc3ccccc3s2)c(C(N)=O)c1C | inactive: 133% |

Later entries

| Structure (SMILES) | intracellular bacterial bioluminescence |
| --- | --- |
| O=C(COc1cccc2c1CCNC2=O)Nc1ccccc1C(F)(F)F | inactive: 89.4% |
| COc1ccc(CCNC(=O)Cn2cnc3c(nnn3-c3cccc(Cl)c3)c2=O)cc1OC | inactive: 99.2% |
| O=C(NCc1ccccc1)c1cc2cc([N+](=O)[O-])ccc2s1 | inactive: 65.2% |
| Cc1cc(NC(=O)CSc2nnc(-c3ccncc3)o2)no1 | inactive: 69.9% |
| CC1CCCN(S(=O)(=O)c2ccc(C(=O)Nc3ccccc3C#N)cc2)C1 (stereo unspecified) | inactive: 51.1% |
| Cc1cc(C)c2cc(CN(Cc3cccnc3)C(=O)Nc3ccccc3)c(Cl)nc2c1 | inactive: 81.7% |
| O=C(CSc1nc(-c2ccccc2)cc(=O)[nH]1)N1CCN(c2ccccc2)CC1 | inactive: 121% |
| COc1cccc2cc(C(=O)Nc3ccc(N4CCOCC4)c(Cl)c3)c(=O)oc12 | inactive: 106% |
| CCOc1ccc(-n2cc(-c3ccccc3)c3c(N4CCN(C(=O)COc5ccccc5C)CC4)ncnc32)cc1 | inactive: 83.9% |
| CC1=C(C(N)=O)C(c2ccccc2)n2nc(-c3ccc(O)cc3)nc2N1 (stereo unspecified) | inactive: 114% |
| O=C(NCCCc1nc2cc3ccccc3cc2[nH]1)c1ccc2nccnc2c1 | inactive: 119% |
| NC(=O)c1cc2cc(Br)ccc2o/c1=N\c1ccc(Oc2ccccc2)cc1 | inactive: 117% |
| O=c1c2nnn(Cc3ccccc3F)c2ncn1Cc1cccc([N+](=O)[O-])c1 | inactive: 90.8% |
| CCc1nnc(NC(=O)CSc2ncnc3c(-c4ccc(C)cc4)nsc23)s1 | inactive: 108% |
| Clc1ccc(C(CNc2nn3cnnc3c3ccccc23)N2CCCCC2)cc1 (stereo unspecified) | inactive: 77.5% |
| N#C/C(C(=O)c1ccc2c(c1)OCCO2)=C1/Nc2ccccc2S1 | inactive: 80.8% |
| COc1cc(OC)cc(C(=O)NCC(=O)N/N=C/c2ccccc2OC)c1 | inactive: 98.7% |
| O=C(NNc1nc2c(F)cccc2s1)c1cc(-c2cccs2)nc2ccccc12 | inactive: 112% |
| O=C1NC(=O)c2cc(NC(=O)c3cccc4ccccc34)ccc21 | inactive: 118% |
| O=C(NCCc1ccccc1)c1cnc2c(F)cccc2c1O | inactive: 97.5% |
| CCc1ccccc1NC(=O)c1sc2nc3c(c(-c4cccs4)c2c1N)CCC3 | inactive: 103% |
| Cc1nn(-c2nc3ccccc3n2C)c2c1C(c1ccsc1)CC(=O)N2 (stereo unspecified) | inactive: 56.2% |
| CC1=CC2=NC(=O)CC(C)(C(=O)Nc3cccc(-c4csnn4)c3)N2C=C1 (stereo unspecified) | inactive: 102% |

| Structure (SMILES) | intracellular bacterial bioluminescence |
| --- | --- |
| COc1cc(C(=O)N/N=C/c2ccc(Br)o2)cc(OC)c1OC | inactive: 63.1% |
| Cc1cccc(C)c1NC(=O)N1CCC(C(=O)c2ccc(F)cc2)CC1 | inactive: 127% |
| COc1ccccc1N1CCN(CCCNC(=O)c2c(-c3ccccc3)nnc3ccccc23)CC1 | inactive: 79.4% |
| c1cnc(-c2nc(-c3ccc(N4CCCCC4)cc3)no2)cn1 | inactive: 117% |
| N#Cc1ccccc1NC(=O)/N=c1\c2ccccc2[nH]c(=O)n1CCc1ccccc1 | inactive: 123% |
| Cc1cccc(-c2noc(CCn3c(=O)[nH]c4ccccc4c3=O)n2)c1 | inactive: 73.2% |
| CNC(=O)Cn1cc(OC)c(=O)cc1CSc1nnc(C)s1 | inactive: 124% |
| Cc1ccc2nc(-c3ccc(O)c(O)c3)c(NC3CCCC3)n2c1 | inactive: 108% |
| Cc1nc2ccn(Cc3ccccc3)c(=O)c2cc1C(=O)NCCC1=CCCCC1 | inactive: 62.6% |
| O=C(NCc1ccccn1)c1ccc2c(=O)n(Cc3ccccc3Cl)c(=S)[nH]c2c1 | inactive: 99% |
| Cc1nnc2sc(SCC(=O)Nc3nccs3)nn2c1=O | inactive: 109% |
| O=C1NC(=O)/C(=C\c2ccc(-c3cccc(Cl)c3Cl)o2)S1 | inactive: 97.2% |
| Cc1cc(OC(=O)C(c2ccccc2)c2ccccc2)c([N+](=O)[O-])c(=O)[nH]1 | inactive: 111% |
| O=C1N/C(=N/c2ccc(F)cc2)S/C1=C\c1ccc(F)cc1 | inactive: 94.8% |
| CCc1nc(SCc2cccnc2)c2c(=O)n(C)c(=O)n(C)c2n1 | inactive: 57.3% |
| CCC(Sc1nc2ncccc2o1)C(=O)N1CCOc2ccc(C)cc21 (stereo unspecified) | inactive: 108% |
| CC(C)c1nc2ccccc2c2nnc(SCC(=O)NCc3ccccc3)n12 | inactive: 81.3% |
| O=C(c1cc(F)cc(F)c1)N1CCc2nc(N3CCCC3)[nH]c(=O)c2C1 | inactive: 115% |
| CCOc1ccc2nc(-n3nc(C)c4c3NC(=O)CC4c3cnn(CC)c3)sc2c1 (stereo unspecified) | inactive: 79.3% |
| Cc1sc2nc(SCC(=O)Nc3c[nH]c(=O)[nH]c3=O)[nH]c(=O)c2c1C | inactive: 117% |
| O=c1[nH]c2ccccc2nc1/C=C/c1ccc(Cl)cc1Cl | inactive: 83.1% |
| O=C(CCN1C(=O)/C(=C/c2ccc(Cl)cc2Cl)SC1=S)Nc1cccnc1 | inactive: 94.4% |
